Assay results taken from PMC10789764.
No constants are given. Whether binding was seen depends on the method and setting. Binding seen in cells or lysates may run through a third protein. Some binding calls cover weakened binding; strength is not graded here.

Amino acid sequences for entries named in this document (tags omitted).
UniProt Q92633: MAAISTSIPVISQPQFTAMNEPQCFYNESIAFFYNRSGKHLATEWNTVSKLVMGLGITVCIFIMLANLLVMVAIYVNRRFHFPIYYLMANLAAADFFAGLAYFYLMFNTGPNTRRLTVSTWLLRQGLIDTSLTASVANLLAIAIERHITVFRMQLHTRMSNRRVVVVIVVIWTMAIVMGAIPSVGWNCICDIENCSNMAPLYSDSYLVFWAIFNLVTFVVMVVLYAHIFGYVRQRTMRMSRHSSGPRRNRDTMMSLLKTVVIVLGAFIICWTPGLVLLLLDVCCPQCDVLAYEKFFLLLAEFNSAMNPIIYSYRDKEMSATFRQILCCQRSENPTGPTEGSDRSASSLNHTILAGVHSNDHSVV
UniProt P49407: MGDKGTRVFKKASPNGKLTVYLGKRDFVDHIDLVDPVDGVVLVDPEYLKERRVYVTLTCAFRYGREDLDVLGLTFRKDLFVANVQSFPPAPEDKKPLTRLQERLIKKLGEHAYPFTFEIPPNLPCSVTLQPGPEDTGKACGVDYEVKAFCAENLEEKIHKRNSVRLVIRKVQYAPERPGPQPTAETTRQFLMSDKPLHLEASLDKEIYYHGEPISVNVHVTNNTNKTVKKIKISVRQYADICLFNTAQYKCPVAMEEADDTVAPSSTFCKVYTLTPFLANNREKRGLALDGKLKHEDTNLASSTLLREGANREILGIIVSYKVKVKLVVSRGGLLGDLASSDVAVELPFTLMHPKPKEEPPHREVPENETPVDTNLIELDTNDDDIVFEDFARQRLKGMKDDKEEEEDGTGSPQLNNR

Target: lysophosphatidic acid receptor 1 (LPAR1), NanoBiT fusion of the β-arrestin1 recruitment assay (UniProt Q92633)
Experiment: split reporter; NanoBiT-based β-arrestin1 recruitment to LPAR1; dose-response with LPA (reference, Emax = 100%), mianserin, mirtazapine, VPC31143, pAEA, OMPT

β-arrestin1, NanoBiT fusion of the β-arrestin1 recruitment assay (from UniProt P49407 1-418)
binding: binds
